Test results from PMC10203745.
Results are given in words; binding and its absence hold for the method and conditions named. Binding seen in cells or lysates may run through a third protein. Some entries that bind do so weakly or less than the wild type.

By UniProt entry, the sequences of proteins in these tests, tags left out. Where a name states a change or a piece, a line headed by the entry shows the natural chain unless it says otherwise.
UniProt Q6PHQ9: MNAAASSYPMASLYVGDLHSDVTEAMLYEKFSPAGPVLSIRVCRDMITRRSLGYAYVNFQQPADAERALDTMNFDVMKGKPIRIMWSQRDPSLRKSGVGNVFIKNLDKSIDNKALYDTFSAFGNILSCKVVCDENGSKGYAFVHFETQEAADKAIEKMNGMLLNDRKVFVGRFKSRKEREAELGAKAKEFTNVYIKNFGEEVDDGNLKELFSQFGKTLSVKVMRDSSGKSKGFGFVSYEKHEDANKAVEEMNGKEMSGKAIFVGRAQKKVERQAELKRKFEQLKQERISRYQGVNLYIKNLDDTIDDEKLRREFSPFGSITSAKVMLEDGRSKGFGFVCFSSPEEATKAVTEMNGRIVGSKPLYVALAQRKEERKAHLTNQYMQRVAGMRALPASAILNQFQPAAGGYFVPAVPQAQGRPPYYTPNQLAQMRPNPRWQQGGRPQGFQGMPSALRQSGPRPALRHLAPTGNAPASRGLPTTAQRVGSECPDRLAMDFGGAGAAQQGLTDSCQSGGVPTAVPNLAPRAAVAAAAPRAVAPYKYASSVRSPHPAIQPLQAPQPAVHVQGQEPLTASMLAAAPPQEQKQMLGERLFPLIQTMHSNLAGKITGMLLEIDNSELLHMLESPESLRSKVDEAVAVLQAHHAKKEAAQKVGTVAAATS
UniProt Q60974: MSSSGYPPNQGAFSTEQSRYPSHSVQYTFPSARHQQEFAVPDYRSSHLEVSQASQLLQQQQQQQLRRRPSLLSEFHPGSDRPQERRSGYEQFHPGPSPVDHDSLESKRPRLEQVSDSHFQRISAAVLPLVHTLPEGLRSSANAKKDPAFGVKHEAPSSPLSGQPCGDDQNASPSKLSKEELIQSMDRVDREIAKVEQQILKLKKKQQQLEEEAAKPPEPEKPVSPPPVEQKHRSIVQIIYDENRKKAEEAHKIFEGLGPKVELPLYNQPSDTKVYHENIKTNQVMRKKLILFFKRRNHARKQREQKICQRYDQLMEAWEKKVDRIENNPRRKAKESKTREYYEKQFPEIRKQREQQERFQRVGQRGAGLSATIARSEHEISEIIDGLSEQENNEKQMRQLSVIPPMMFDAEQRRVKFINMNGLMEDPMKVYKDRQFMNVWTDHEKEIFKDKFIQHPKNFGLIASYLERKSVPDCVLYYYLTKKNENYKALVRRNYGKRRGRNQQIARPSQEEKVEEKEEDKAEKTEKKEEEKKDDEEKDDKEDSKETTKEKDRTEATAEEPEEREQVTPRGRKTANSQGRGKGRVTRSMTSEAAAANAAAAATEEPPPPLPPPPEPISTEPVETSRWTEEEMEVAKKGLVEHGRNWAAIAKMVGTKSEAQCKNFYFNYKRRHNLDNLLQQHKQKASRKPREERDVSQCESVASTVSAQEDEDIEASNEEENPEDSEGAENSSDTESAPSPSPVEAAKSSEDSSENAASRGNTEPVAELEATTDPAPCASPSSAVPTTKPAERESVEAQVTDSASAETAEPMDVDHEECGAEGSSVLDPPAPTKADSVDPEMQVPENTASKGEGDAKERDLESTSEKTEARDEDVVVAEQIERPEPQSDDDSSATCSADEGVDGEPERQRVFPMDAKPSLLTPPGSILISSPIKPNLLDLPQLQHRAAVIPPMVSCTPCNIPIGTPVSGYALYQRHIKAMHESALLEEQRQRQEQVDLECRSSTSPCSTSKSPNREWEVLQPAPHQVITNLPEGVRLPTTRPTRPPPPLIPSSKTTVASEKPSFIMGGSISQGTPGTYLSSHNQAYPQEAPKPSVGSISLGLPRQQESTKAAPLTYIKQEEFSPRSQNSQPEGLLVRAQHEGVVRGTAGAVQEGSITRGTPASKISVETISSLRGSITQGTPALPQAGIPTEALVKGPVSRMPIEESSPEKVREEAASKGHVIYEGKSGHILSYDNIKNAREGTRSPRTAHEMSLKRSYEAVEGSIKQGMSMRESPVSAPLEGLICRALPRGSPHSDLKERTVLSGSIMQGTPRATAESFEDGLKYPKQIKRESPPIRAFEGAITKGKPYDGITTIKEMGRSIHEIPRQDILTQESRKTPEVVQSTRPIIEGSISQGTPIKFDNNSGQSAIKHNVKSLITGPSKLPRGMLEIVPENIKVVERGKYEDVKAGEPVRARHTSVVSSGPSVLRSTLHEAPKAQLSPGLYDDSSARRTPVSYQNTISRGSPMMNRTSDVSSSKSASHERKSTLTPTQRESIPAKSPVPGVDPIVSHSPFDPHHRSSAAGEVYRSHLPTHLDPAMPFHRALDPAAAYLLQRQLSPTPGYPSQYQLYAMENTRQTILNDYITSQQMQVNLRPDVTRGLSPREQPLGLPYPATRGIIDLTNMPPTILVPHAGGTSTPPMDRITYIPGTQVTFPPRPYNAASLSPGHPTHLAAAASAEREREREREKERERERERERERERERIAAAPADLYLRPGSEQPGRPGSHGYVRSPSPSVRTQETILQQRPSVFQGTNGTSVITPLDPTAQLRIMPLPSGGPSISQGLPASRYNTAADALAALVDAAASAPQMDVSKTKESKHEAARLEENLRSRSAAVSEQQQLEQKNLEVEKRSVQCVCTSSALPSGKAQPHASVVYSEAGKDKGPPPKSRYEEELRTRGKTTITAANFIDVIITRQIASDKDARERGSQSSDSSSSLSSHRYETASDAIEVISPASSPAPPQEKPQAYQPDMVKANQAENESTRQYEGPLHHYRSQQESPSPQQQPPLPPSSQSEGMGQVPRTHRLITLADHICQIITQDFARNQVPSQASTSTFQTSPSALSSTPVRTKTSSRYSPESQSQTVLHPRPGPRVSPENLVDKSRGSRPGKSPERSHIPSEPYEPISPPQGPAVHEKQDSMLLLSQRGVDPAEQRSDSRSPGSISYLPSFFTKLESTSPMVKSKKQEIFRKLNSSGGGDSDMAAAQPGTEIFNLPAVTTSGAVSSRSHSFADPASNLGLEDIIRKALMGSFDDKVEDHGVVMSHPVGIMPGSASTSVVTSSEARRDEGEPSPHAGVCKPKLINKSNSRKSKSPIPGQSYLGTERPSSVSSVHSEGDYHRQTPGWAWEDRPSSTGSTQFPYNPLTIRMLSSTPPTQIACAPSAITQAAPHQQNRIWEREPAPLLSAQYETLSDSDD

Tests used:
PABPC4-GST = PABPC4-GST (UniProt Q6PHQ9); test: pull-down; PABPC4-GST or GST from E. coli lysate bound to glutathione agarose resin (batch method, 16 h, 4 °C), washed four times, incubated 16 h at 4 °C with Hek293T lysate containing the FLAG-tagged protein (NP-40 lysis buffer: 50 mM Tris-HCl pH 8.0, 150 mM NaCl, 1% NP-40); eluted with 10 mM reduced glutathione; anti-FLAG Western blot; only the target purified
[1] = biological target: poly(A)-binding protein cytoplasmic 4 (PABPC4), FLAG-tagged, immunoprecipitated in the reverse co-IP (UniProt Q6PHQ9); test: co-IP; co-IP of PABPC4 and NCoR1 followed by RNAse treatment
[2] = biological target: poly(A)-binding protein cytoplasmic 4 (PABPC4), FLAG-tagged, immunoprecipitated in the reverse co-IP (UniProt Q6PHQ9); test: co-IP; reverse co-IP: PABPC4 immunoprecipitated (anti-FLAG M2 affinity gel, overnight, 4 °C), samples probed with NCoR1 antibody; lysis in 25 mM Tris pH 7.9, 150 mM NaCl, 1 mM EDTA, 1% Triton X-100; the interaction was lower in cells subjected to glucose deprivation (Fig. S4E)

| Substance | binding (PABPC4-GST) | binding [1] | binding [2] |
| --- | --- | --- | --- |
| NCoR1 N-terminal portion (1-1628aa), FLAG-tagged (from UniProt Q60974 1-1628) (domain or fragment) | binds | – | – |
| endogenous nuclear receptor corepressor 1 (NCoR1) (from UniProt Q60974 1-2453) | – | binds | binds |
| nuclear receptor corepressor 1 (NCoR1) full-length, FLAG-tagged, expressed in Hek293T cells (from UniProt Q60974 1-2453) | binds | – | – |
